Laboratory results: PubChem BioAssay AID504764 (Drosophila RNAi Screening Center, 2011)
Screen: 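Knock-downs that raise or lower a Notch target reporter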 (primary screen). Cells: Drosophila Kc167 cells. Reagents: long dsRNA against Drosophila genes. Timing: about 5 days (4 days dsRNA, then 24 h after transfection). Treatment: transfection of constitutively active membrane-tethered Notch lacking the extracellular domain, read 24 h later. Measured: 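Firefly luciferase from an E(spl)m3 reporter with active Notch, plus control-promoter and uninduced reporter wells for normalisation; unnormalised counts, duplicate wells a and b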. Scale: induced reporter light, run 1, well a and induced reporter light, run 1, well b: higher = more light from the Notch target reporter with active Notch; control promoter light, run 1, well a and control promoter light, run 1, well b: higher = more light from the viral control promoter (cell number, transfection, viability); uninduced reporter light, run 1, well a: higher = more light from the Notch target reporter without active Notch. Call rule: 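Wells with low control signal or poorly matching duplicates excluded; duplicates averaged; per source plate, z beyond ±2 for induced/control log2 ratio or beyond ±1.8 for induced/uninduced marks a hit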. Meaning of the calls: active = modifier hit (raised or lowered Notch signal); inactive = not a hit.
The screen tested about 22,000 reagents; this is a random part of those that have a named target and a result. Of all reagents, 403 (1.9%) got an active call. 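Unnormalised raw counts per well; ratio z-scores behind the hit calls and whether each hit raises or lowers signal are not deposited.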 A plus sign joins genes that one reagent is predicted to hit. Not given: the amount of reagent.

| target | dsRNA | induced reporter light, run 1, well a | induced reporter light, run 1, well b | control promoter light, run 1, well a | control promoter light, run 1, well b | uninduced reporter light, run 1, well a | Outcome |
| --- | --- | --- | --- | --- | --- | --- | --- |
| TTLL1B | DRSC08594 | 1.91e5 | 2.31e5 | 1.70e5 | 1.64e5 | 11480 | inactive |
| SCCRO3 | DRSC06359 | 67035 | 84405 | 87935 | 1.04e5 | 5378 | inactive |
| CG32301 | DRSC08613 | 94295 | 98910 | 1.30e5 | 1.75e5 | 6465 | inactive |
| Drsl4 | DRSC08034 | 1.73e5 | 1.47e5 | 2.08e5 | 2.01e5 | 14610 | inactive |
| CG4704 | DRSC15628 | 2.11e5 | 2.08e5 | 2.39e5 | 2.06e5 | 17185 | inactive |
| kek5 | DRSC19438 | 1.00e5 | 1.05e5 | 85645 | 1.06e5 | 14655 | inactive |
| eIF4H1 | DRSC20276 | 22505 | 25500 | 29775 | 25720 | 3365 | inactive |
| Cdk1 | DRSC03504 | 27335 | 31495 | 14485 | 24405 | 2500 | inactive |
| Jon99Ci | DRSC16860 | 1.24e5 | 1.30e5 | 1.85e5 | 1.63e5 | 10075 | inactive |
| COX1 (retired record) | DRSC21275 | 82530 | 1.16e5 | 1.03e5 | 1.10e5 | 9980 | inactive |
| CG32110 | DRSC09220 | 2.15e5 | 1.80e5 | 2.79e5 | 2.59e5 | 20915 | inactive |
| Ir94a | DRSC13538 | 70510 | 75815 | 83685 | 74695 | 10520 | inactive |
| mago | DRSC04703 | 14695 | 26470 | 31910 | 20660 | 1540 | inactive |
| CG46339 | DRSC14136 | 1.57e5 | 1.77e5 | 2.02e5 | 2.40e5 | 14755 | inactive |
| sls | DRSC08528 | 50695 | 41665 | 85815 | 93955 | 3755 | inactive |
| sls | DRSC08540 | 1.29e5 | 1.26e5 | 1.62e5 | 1.87e5 | 10475 | inactive |
| sls | DRSC08670 | 1.35e5 | 1.58e5 | 2.58e5 | 2.02e5 | 11130 | inactive |
| CG34236 | DRSC05435 | 1.84e5 | 1.74e5 | 1.99e5 | 2.12e5 | 17080 | inactive |
| CG14327 | DRSC14806 | 1.95e5 | 2.00e5 | 1.98e5 | 2.35e5 | 19285 | inactive |
| mRpL47 | DRSC16827 | 77705 | 73440 | 62555 | 45145 | 4350 | inactive |
| stol | DRSC01956 | 1.35e5 | 1.31e5 | 1.59e5 | 1.61e5 | 9885 | inactive |
| Gnf1 | DRSC12351 | 1.24e5 | 90770 | 90405 | 89145 | 8745 | inactive |
| CG32199 | DRSC09990 | 1.78e5 | 1.51e5 | 1.93e5 | 1.60e5 | 7960 | inactive |
| Ppm1 | DRSC08260 | 1.41e5 | 1.18e5 | 2.66e5 | 1.51e5 | 8850 | inactive |
| CG8191 + CG12379 | DRSC19451 | 1.56e5 | 1.56e5 | 1.40e5 | 1.41e5 | 12875 | inactive |
| CG34029 | DRSC03909 | 99610 | 79660 | 74800 | 78755 | 8660 | inactive |
| CG31077 | DRSC13805 | 1.38e5 | 1.12e5 | 1.54e5 | 1.79e5 | 8965 | active |
| Klp68D | DRSC11206 | 1.46e5 | 1.35e5 | 86840 | 49160 | 10985 | inactive |
| CG32191 | DRSC10522 | 1.76e5 | 1.68e5 | 2.50e5 | 1.66e5 | 8180 | inactive |
| gsb | DRSC04692 | 2.05e5 | 2.25e5 | 1.59e5 | 1.80e5 | 13980 | inactive |
| CG42506 (retired record) + CG43759 | DRSC19464 | 1.25e5 | 98665 | 78420 | 60940 | 8225 | inactive |
| CG42506 (retired record) + CG43759 | DRSC19543 | 47315 | 42460 | 36385 | 35490 | 8805 | inactive |
| Gbeta76C | DRSC11174 | 1.64e5 | 1.83e5 | 1.26e5 | 1.45e5 | 12475 | inactive |
| Zn72D | DRSC11318 | 83900 | 78335 | 62275 | 51380 | 7720 | inactive |
| primo-2 + primo-1 | DRSC16511 | 1.88e5 | 1.85e5 | 1.58e5 | 1.84e5 | 15760 | inactive |
| Ccp84Aa | DRSC12586 | 48765 | 50420 | 35535 | 31405 | 2755 | inactive |
| CG9855 | DRSC12344 | 1.24e5 | 90310 | 45600 | 80450 | 7438 | inactive |
| lectin-30A | DRSC02560 | 1.07e5 | 1.26e5 | 68780 | 1.07e5 | 16725 | inactive |

3 of these entries, reformatted.
target	dsRNA	induced reporter light, run 1, well a	induced reporter light, run 1, well b	control promoter light, run 1, well a	control promoter light, run 1, well b	uninduced reporter light, run 1, well a	Outcome
CG42506 (retired record) + CG43759	DRSC19543	47315	42460	36385	35490	8805	inactive
Gbeta76C	DRSC11174	1.64e5	1.83e5	1.26e5	1.45e5	12475	inactive
Zn72D	DRSC11318	83900	78335	62275	51380	7720	inactive

The results go on.
| target | dsRNA | induced reporter light, run 1, well a | induced reporter light, run 1, well b | control promoter light, run 1, well a | control promoter light, run 1, well b | uninduced reporter light, run 1, well a | Outcome |
| --- | --- | --- | --- | --- | --- | --- | --- |
| CG2617 | DRSC02712 | 67175 | 57270 | 44635 | 71450 | 3635 | inactive |
| Pfrx | DRSC18856 | 1.00e5 | 99630 | 98960 | 1.15e5 | 13885 | inactive |
| Pfrx | DRSC19315 | 88710 | 87565 | 1.07e5 | 1.02e5 | 8965 | inactive |
| CG18128 | DRSC04304 | 2.21e5 | 1.87e5 | 1.88e5 | 1.82e5 | 14100 | inactive |
| POLDIP2 | DRSC12194 | 1.50e5 | 1.05e5 | 80820 | 79195 | 10105 | inactive |
| ppk17 | DRSC02252 | 1.34e5 | 1.37e5 | 1.47e5 | 1.61e5 | 11278 | inactive |
| l(1)G0196 | DRSC20591 | 2.10e5 | 2.10e5 | 2.81e5 | 2.85e5 | 15980 | inactive |
| l(1)G0196 | DRSC20628 | 91510 | 1.04e5 | 68865 | 49200 | 8055 | inactive |
| l(1)G0196 | DRSC20629 | 1.27e5 | 1.36e5 | 1.09e5 | 1.29e5 | 12505 | inactive |
| CG9166 | DRSC07842 | 1.11e5 | 76765 | 1.31e5 | 1.08e5 | 5900 | inactive |
| CG4239 | DRSC19885 | 1.47e5 | 1.61e5 | 2.64e5 | 2.41e5 | 12900 | inactive |
| ms(3)76Cc | DRSC11071 | 1.74e5 | 1.40e5 | 1.22e5 | 1.14e5 | 10285 | inactive |
| Nep6 | DRSC19877 | 1.21e5 | 1.24e5 | 1.95e5 | 1.90e5 | 10545 | inactive |
| pzg | DRSC11848 | 88510 | 91990 | 88395 | 1.10e5 | 9665 | inactive |
| Ppn | DRSC15328 | 1.40e5 | 1.26e5 | 1.87e5 | 1.72e5 | 10975 | inactive |
| mRpL35 | DRSC14586 | 1.78e5 | 1.68e5 | 2.10e5 | 2.01e5 | 12930 | inactive |
| CG7974 | DRSC08607 | 1.24e5 | 1.19e5 | 1.86e5 | 2.02e5 | 10450 | inactive |
| Nin | DRSC02007 | 1.74e5 | 1.37e5 | 1.36e5 | 1.64e5 | 11145 | inactive |
| HP4 | DRSC10958 | 1.21e5 | 1.29e5 | 79835 | 32540 | 10000 | inactive |
| shn | DRSC05266 | 1.89e5 | 1.82e5 | 2.44e5 | 3.36e5 | 20750 | inactive |
| shn | DRSC07681 | 1.21e5 | 1.31e5 | 1.30e5 | 1.36e5 | 12020 | inactive |
| CG11360 | DRSC17124 | 66250 | 66195 | 77500 | 90865 | 4905 | inactive |
| CG11360 | DRSC17134 | 94600 | 91645 | 2.02e5 | 1.73e5 | 8950 | inactive |
| CG31221 | DRSC14335 | 1.43e5 | 1.08e5 | 1.61e5 | 1.51e5 | 8438 | inactive |
| CG31221 | DRSC16217 | 1.86e5 | 1.63e5 | 2.16e5 | 1.86e5 | 11675 | inactive |
| Mst84Dc | DRSC12599 | 96655 | 1.09e5 | 83600 | 71330 | 7235 | inactive |
